Patent publication US11766429B1, “Nicotinic receptor antagonists and pioglitazone as therapeutic agents for Covid-19” (priority 2020, dated 2023)
At least one structure is not confirmed: it was looked up by name or label, or the drawing left a doubt.

Key:
[1] = test system: IL-6 and TNFα levels; conditions: insulin resistant patients, 30-45 mg/day; cited from earlier work
[2] = test system: IL-6 and TNFα mRNA expression; conditions: lung injury; cited from earlier work
[3] = test system: inflammatory cytokines IL-6, IL-1β, and TNFα; assay: SARS-CoV-2 induced cytokine gene expression in Calu3 cells; format: cell-based; conditions: 0.1 MOI SARS CoV2, single agent: PG 20 μM, Mec 5 μM or Mec iso 5 μM, 48 hrs

CCc1ccc(CCOc2ccc(CC3SC(=O)NC3=O)cc2)nc1 (stereo not drawn) [pioglitazone]
IL-6 and TNFα levels [1]: significantly reduce | IL-6 and TNFα mRNA expression [2]: significantly reduce | inflammatory cytokines IL-6, IL-1β, and TNFα [3]: significant decrease
